Laboratory results: US20110020437A1 (APIM THERAPEUTICS, published 2011)
Results are given in words; binding and its absence hold for the method and conditions named. For part of these data: In cells and extracts the contact can be indirect. Some entries that bind do so weakly or less than the wild type. For part of these data: Where a sequence is shown, tags or fusion partners need not be part of it.

The chains behind the UniProt entries cited, without tags or fusion partners.
UniProt P12004: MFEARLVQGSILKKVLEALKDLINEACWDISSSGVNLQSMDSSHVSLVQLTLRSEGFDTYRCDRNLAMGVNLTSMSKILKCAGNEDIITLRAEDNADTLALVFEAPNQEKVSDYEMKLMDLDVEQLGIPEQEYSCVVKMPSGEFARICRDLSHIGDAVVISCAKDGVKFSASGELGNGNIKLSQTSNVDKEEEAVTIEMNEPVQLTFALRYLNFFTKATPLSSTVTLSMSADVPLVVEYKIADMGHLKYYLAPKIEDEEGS

Legend:
hABH2 (human) [1] = biological target: T1, hABH2 (human) (UniProt Q6NS38); test: co-IP with anti-PCNA magnetic beads from cells expressing only endogenous proteins, anti-hABH2 western blot
T1 sequence (looked up): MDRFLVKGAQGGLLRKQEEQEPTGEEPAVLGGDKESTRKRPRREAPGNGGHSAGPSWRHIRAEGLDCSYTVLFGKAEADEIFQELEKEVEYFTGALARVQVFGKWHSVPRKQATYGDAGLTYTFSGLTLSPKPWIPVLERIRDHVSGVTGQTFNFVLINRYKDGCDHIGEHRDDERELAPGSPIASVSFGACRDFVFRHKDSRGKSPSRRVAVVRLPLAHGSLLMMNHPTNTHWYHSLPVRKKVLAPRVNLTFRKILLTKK

hABH2 (human) [2] = biological target: T1, hABH2 (human); test: co-IP with anti-EYFP magnetic beads from cells stably expressing EYFP-PCNA, anti-hABH2 western blot
[3] = biological target: T2, proliferating cell nuclear antigen (PCNA) (UniProt P12004 1-261); test: in vivo cross-linking, IP with anti-FLAG affinity gel, western blot with anti-PCNA or anti-FLAG
T2 construct: Used both for endogenous PCNA of HeLa cell extracts (co-IP, cross-linking) and for the untagged 'PCNA' used as probe in the dot blot; also called endogenous PCNA

ECFP-PCNA = ECFP-PCNA (UniProt P12004); test: FRET (sensitised emission) in live HeLa cells
[4] = biological target: T2, proliferating cell nuclear antigen …; test: co-IP with anti-GFP antibodies from stably expressing cells, anti-PCNA western blot
Description: An in-house affinity purified rabbit polyclonal antibody raised against GFP protein, which also recognises EYFP and ECFP proteins, was covalently linked to protein-A paramagnetic beads (Dynal®) according to procedure from New England Biolabs® Inc (from now on called α-GFP beads). Each fraction was incubated with α-GFP beads (10 μl) during constant rotation at 4° C. over night (IP). After IP, the beads were washed 4 times with 200 μl 10 mM Tris-HCl, 50 mM KCl (pH 7.5), with 5 min incubation on ice in between. The beads were then resuspended in NuPAGE ® (Invitrogen) loading buffer and 1 mM DTT, heated, and separated on 10% or 4-12% Bis-Tris-HCl (NuPAGE®) gels and transferred to PVDF membranes (Imrnobilon®, Millipore). The membranes were blocked for 1 h in 5% low fat dry milk in PBST (PBS with 0.1% Tween® 20). The primary antibodies, α-PCNA (PC10, Santa Cruz biotechnology Inc.) and α-GFP were diluted in 1% dry milk in PBST and incubated for 1 h, followed by 1 h incubation with secondary antibodies, Polyclonal Rabbit Anti-mouse IgG/HRP and Polyclonal Swine Anti-rabbit IgG/HRP, respectively (DakoCytomation, Denmark). The membranes were treated with chemiluminescence reagent (SuperSignal® West Femto Maximum, PIERCE), and the proteins visualised in Kodak Image Station 2000R. […]

[5] = biological target: T2, proliferating cell nuclear antigen …; test: dot blot: peptide spots probed with 1 ug/ml PCNA, detected with anti-PCNA PC10

“proliferating cell nuclear antigen (PCNA) (from UniProt P12004 1-261)” was tested, and the binding (hABH2 (human) [1]) was “binds”.

With EYFP-PCNA (from UniProt P12004 1-261) the binding (hABH2 (human) [2]) was “binds”.

In the case of MDRFLVK (peptide, human, UniProt Q6NS38 1-7, looked up, not shown: large carriers; small tags and cut ends) [hABH21-7-EYFP 3× FLAG], the binding [3] is reported as “binds”.

B1: hABH21-261-EYFP (protein, human, UniProt Q6NS38 1-261, looked up, not shown: large carriers)
chain: MDRFLVKGAQGGLLRKQEEQEPTGEEPAVLGGDKESTRKRPRREAPGNGGHSAGPSWRHIRAEGLDCSYTVLFGKAEADEIFQELEKEVEYFTGALARVQVFGKWHSVPRKQATYGDAGLTYTFSGLTLSPKPWIPVLERIRDHVSGVTGQTFNFVLINRYKDGCDHIGEHRDDERELAPGSPIASVSFGACRDFVFRHKDSRGKSPSRRVAVVRLPLAHGSLLMMNHPTNTHWYHSLPVRKKVLAPRVNLTFRKILLTKK
In the case of B1, the binding (ECFP-PCNA) is reported as “binds” and the binding [4] is reported as “binds”.

With MDRFLVKGAQ (peptide, human, UniProt Q6NS38 1-10, looked up, not shown: large carriers) [hABH21-10-EYFP] the binding (ECFP-PCNA) was “binds” and the binding [4] was “binds”.

For MDRFLVKGAQ (peptide, UniProt Q6NS38 1-10, looked up) [hABH2 N-terminal peptide (dot blot)], the binding [5] was “binds”.

MDRYLVKGAQ (peptide, UniProt Q6NS38 1-10, looked up) [hABH2 N-terminal peptide with Phe4 replaced by Tyr (dot blot)] was tested, and the binding [5] was “binds”.
